## Small-molecule microarray binding calls

From ROBIN, a set of small-molecule microarray screens (doi:10.1002/anie.202211358).

Targets (5′ to 3′):
SAM-II: SAM-II riboswitch RNA pseudoknot, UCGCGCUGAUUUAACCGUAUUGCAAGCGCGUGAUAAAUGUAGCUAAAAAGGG. Hit rate about 1% of about 21,000 compounds.
TPP: TPP riboswitch RNA three-way junction, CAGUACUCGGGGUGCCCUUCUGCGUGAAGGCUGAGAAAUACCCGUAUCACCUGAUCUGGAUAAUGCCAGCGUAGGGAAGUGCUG. Hit rate about 0.7% of about 24,000 compounds.
PreQ1: PreQ1 riboswitch RNA pseudoknot, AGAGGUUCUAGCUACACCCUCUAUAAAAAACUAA. From B. subtilis. Hit rate about 0.7% of about 24,000 compounds.

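The test is a small-molecule microarray: each compound is printed twice on a reactive slide, and binding shows as fluorescence of the labelled oligonucleotide after washing. The data file lists only calls. An earlier report of the laboratory on the PreQ1, TPP and SAM-II riboswitches (doi:10.1038/s41467-019-09493-3) used 1 µM RNA for 2 h and required a mean Z-score above 3 (spot signal-to-noise against the whole library), a score well above that on a control array, and duplicate spots agreeing (coefficient of variation under 100); it then also set aside compounds that hit other targets, which this list keeps. The cut-offs behind this list may differ. The calls come from the array alone, and fixing a compound to the slide can hide its binding.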 “Y” means called a hit, “N” means screened and not called a hit. The compounds are a random part of those screened. A dash means that no call is listed here.

Compound,SAM-II,TPP,PreQ1
O=C(O)c1cc(Nc2ccc(F)cc2)c2cccc(Cl)c2n1,N,N,N
Cc1nc(/N=N/c2ccccc2)[nH]c1/N=N/c1ccccc1,N,N,N
CCOC(=O)c1ccccc1Nc1nc2ccc(C)cc2n2cnnc12,N,N,N
Cc1n[nH]c(C)c1C(N)C(=O)NCCNc1cccnc1 (stereo unspecified),Y,Y,Y
Cc1cccc(NC(=O)c2nnn(Cc3ccc(C(C)C)cc3)c2N)c1,N,N,N
CN[C@@H](C)c1nc(C2CCOCC2)nn1CC1CCCCC1,N,N,N
Cc1c(C2CC2(C)C)nc(N)c(C#N)c1-c1ccc(S(C)(=O)=O)cc1 (stereo unspecified),N,N,N
Cc1cc(Nc2cccc(C(F)(F)F)c2)n2nc(C)nc2n1,N,N,N
CN(CCO)c1ccc(-c2cc(O)cc(CCC3CCCCN3)c2)nn1 (stereo unspecified),N,N,N
CCOCCCNCc1ccc2c(c1)n(C)c(=O)n2C,-,N,N
O=C(Nc1cc(Cl)cc(Cl)c1)N1CC[C@H](O)[C@@H](O)C1,N,N,N
NS(=O)(=O)c1ccc(Nc2ccccc2)c([N+](=O)[O-])c1,N,N,N
CCOc1ccc([C@@H]2C[C@H](c3cccc(C)c3)n3nc(N)nc3N2)cc1,N,N,N
N#CC1=C(N)Oc2c(c(=O)oc3ccccc23)C1c1ccc(Cl)c(Cl)c1 (stereo unspecified),N,N,N
C#CC(C)(CC)OCC(O)CN1CCCCCC1.Cl (stereo unspecified),N,N,N
Cc1ccccc1-c1ncc(CN2CCNC(C(=O)NC3CC3)C2)s1 (stereo unspecified),N,N,N
Cc1ncc(CO)c(CN(C)CCN2CCCCCC2)c1O,N,N,N
Cc1sc2nc(SCCCC(=O)NCCO)nc(N)c2c1C,N,N,N
CCC=CCC(=O)N1CC[C@H](O)C[C@@H]1C(=O)O,N,N,N
COc1ccc(-c2nc3cnccn3c2Nc2ccc(C(N)=O)cc2)cc1,-,N,N
Cc1c(C(=O)Oc2ccc3c(c2)C(C)CC(C)(C)N3)cccc1[N+](=O)[O-] (stereo unspecified),N,N,N
Cc1nonc1CN,N,N,N
Cc1ccnc(Nc2nc(C)c3cccc(C)c3n2)n1,N,N,N
CN(C)C[C@H]1C[C@H](CO)CN(C(=O)c2ccc(O)cc2)C1,N,N,N
Cc1cc(C)n(CC(C)O)c(=O)c1C#N (stereo unspecified),N,N,N
COc1ccc(C(=S)N2CCN(c3cccc(Cl)c3)CC2)cc1,N,N,N
Cc1nccn1-c1ccc(N)cc1,N,N,N
CCCc1n[nH]cc1C(=O)N1C[C@H](CO)C[C@H](CN2CCOCC2)C1,N,N,N
Cc1c(C)c2c(c(C)c1O)CCC(C)(C(=O)N1CCC(O)(CO)CC1)O2 (stereo unspecified),N,N,N
Cc1ccc2c(N)c(C(=O)O)sc2n1,N,N,N
CS(=O)(=O)c1ccc(C(=O)N2CCC3(CC2)[C@H](O)C[C@@H]3O)cc1,N,N,N
COc1ccc(N2CCC(NC(c3nccn3C)C(C)C)CC2)cc1 (stereo unspecified),N,N,N
NCC(=O)Nc1ccc(-n2nc(C(F)(F)F)cc2-c2ccc3c(ccc4ccccc43)c2)cc1,Y,Y,Y
CC(C(=O)O)c1ccc2c(c1)CC(=O)c1ccccc1S2 (stereo unspecified),N,N,N
CC1(C)CC(=O)C2=C(C1)OC(N)=C(C#N)C2c1ccc(F)c(Br)c1 (stereo unspecified),N,N,N
COc1ccc(-c2cc(-c3ccccc3C)nc(N)c2C#N)c(OC)c1OC,N,N,N
Cc1cc(NCC(O)COCc2ccccc2)n2nc(C)c(C)c2n1 (stereo unspecified),N,N,N
COCCN(Cc1nccs1)C(=O)c1ccccc1C1CCNC1 (stereo unspecified),N,N,N
CCC1c2cccn2CCN1C(=O)c1ccccc1NCC(=O)O (stereo unspecified),N,N,N